# Data: patent publication US7037644B1, “Means and methods for monitoring non-nucleoside reverse transcriptase inhibitor antiretroviral therapy and guiding therapeutic decisions in the treatment of HIV/AIDS” (ViroLogic, Inc., priority 1998, dated 2006)
# Some results were stated once for a whole list of compounds, not compound by compound.
# Key:
# Test in all cases: Phenotypic susceptibility assay (site directed mutant RTV)
# Format in all cases: cell-based, HIV-1
# K103N-Y188L-RTV = settings: K103N and Y188L
# Description: (§1) The resistance test vectors containing a functional luciferase gene cassette were constructed and host cells were transfected with the resistance test vector DNA. The resistant test vectors contained patient-derived reverse transcriptase and protease sequences that were either susceptible or resistant to the antiretroviral agents, such as nucleoside reverse transcriptase inhibitors, non-nucleoside reverse transcriptase inhibitors and protease inhibitors. The resistance test vector viral particles produced by transfecting the resistance test vector DNA into host cells, either in the presence or absence of protease inhibitors, were used to infect target host cells grown either in the absence of NRTI or NNRTI or in the presence of increasing concentrations of the drug. The amount of luciferase activity produced in infected target host cells in the presence of drug was compared to the amount of luciferase produced in infected target host cells in the absence of drug. Drug resistance was measured as the amount of drug required to inhibit by 50% the luciferase activity detected in the absence of drug (inhibitory concentration 50%, IC50). The IC50 values were determined by plotting percent drug inhibition vs. log10 drug concentration.
# (§2) Host cells were seeded in 10-cm-diameter dishes and were transfected several days after plating with resistance test vector plasmid DNA and the envelope expression vector. Transfections were performed using a calcium-phosphate precipitation procedure. The cell culture media containing the DNA precipitate was replaced with fresh medium, from one to 24 hours, after transfection. Cell culture media containing resistance test vector viral particles was harvested one to four days after transfection and was passed through a […] filter before being stored at […]. HIV capsid protein (p24) levels in the harvested cell culture media were determined by an EIA method as described by the manufacturer (SIAC; Frederick, Md.). Before infection, target cells (293 and 293/T) were plated in cell culture media. Control infections were performed using cell culture media from mock transfections (no DNA) or transfections containing the resistance test vector plasmid DNA without the envelope expression plasmid. One to three or more days after infection the media was removed and cell lysis buffer (Promega) was added to each well. Cell lysates were assayed for luciferase activity (FIG. 3). The inhibitory effect of the drug was determined using the following equation: % luciferase inhibition=1−(RLUluc [drug]÷RLUluc)×100 where RLUluc [drug] is the relative light unit of luciferase activity in infected cells in the presence of drug and RLUluc is the Relative Light Unit of luciferase activity in infected cells in the absence of drug. IC50 values were obtained from the sigmoidal curves that were generated from the data by plotting the percent inhibition of luciferase activity vs. the log10 drug concentration. The drug inhibition curves are shown in (FIG. 3).
# (§3) The mutations Y188L, L100I and K103N were introduced alone and in combinationn into resistance test vectors using the mega-primer method for site-directed mutagenesis (Sakar and Sommar, Ibid.).
# L100I-K103N-Y188L-RTV = settings: K103N and Y188L
# Description: as §1, §2, §3
# L100I_K103N-RTV = settings: L100I and K103N
# Description: as §1, §2, §3
SMILES,"loss of susceptibility (fold, IC50) vs wild type control RTV (K103N-Y188L-RTV)","loss of susceptibility (fold, IC50) vs wild type control RTV (L100I-K103N-Y188L-RTV)","loss of susceptibility (fold, IC50) vs wild type control RTV (L100I_K103N-RTV)"
CC(C)Nc1cccnc1N1CCN(C(=O)c2cc3cc(NS(C)(=O)=O)ccc3[nH]2)CC1 [delavirdine],greater than 250 fold,greater than 250 fold,greater than 250 fold
O=C1Nc2ccc(Cl)cc2[C@@](C#CC2CC2)(C(F)(F)F)O1 [efavirenz],greater than 250 fold,,greater than 250 fold
Cc1ccnc2c1NC(=O)c1cccnc1N2C1CC1 [nevirapine],,greater than 250 fold,
